# Results as given in PubChem BioAssay AID1487 (National Center for Advancing Translational Sciences (NCATS), 2009).
# The list shows a part of the results. Shown are side measurements of this screen, not its main read-out; they come without a call. Most of these compounds were active or inconclusive in the main read-out, so they are no random draw. Potencies come from curve fits of mixed quality, noted in brackets.
# Experiment: qHTS Assay for Modulators of Lamin A Splicing
# Details: HeLa LMNA splicing GFP/RFP minigene ratio, 48 h
# How it was run: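 Read-out is the ratio of GFP to DsRed2 object intensity, acquired by 488 nm laser-scanning cytometry on HeLa lamin A-EGFP minigene reporter cells. Compound incubation 48 hrs at 37 °C in Opti-MEM with 2% FBS; DMSO 0.5% final.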
# [1] = measured here: RFP viability control channel
# [2] = measured here: GFP splicing reporter channel
Compound,AC50 [1],AC50 [2]
Cc1onc(-c2ccccc2Cl)c1C(=O)Nc1nnc(-c2cccc([N+](=O)[O-])c2)s1,"12.6 µM [rising, partial curve]",
CCn1c(SCc2nc(-c3ccc(OC)c(OC)c3)no2)nnc1-c1cccs1,"35.5 µM [rising, single point]",
COc1ccc(Cl)cc1NC(=S)NCCC(c1ccccc1)c1ccccc1,"35.5 µM [rising, single point]",
CCOC(=O)c1c(NC(=O)c2ccc(S(=O)(=O)N(C)C3CCCCC3)cc2)sc2c1CCN(C(C)C)C2,"35.5 µM [falling, single point]",
Cc1ccc(-c2ccc(SCC(=O)c3ccccc3)nn2)cc1,"35.5 µM [rising, single point]",
Cc1ccc(Cl)cc1-n1ncc2c(N3CCN(Cc4ccccc4)CC3)ncnc21,"35.5 µM [falling, partial curve]","17.8 µM [falling, partial curve]"
COCCNc1ncnc2ccc(-c3cccnc3)cc12,"1.78 µM [falling, partial curve, poor fit]","1.12 µM [falling, partial curve, poor fit]"
BrC(/C=N/Nc1nc(N2CCOCC2)nc(N2CCOCC2)n1)=C/c1ccccc1,"0.0794 µM [falling, single point]","12.6 µM [falling, single point]"
Cc1ccc(C)c(NC(=S)NC(NC(=O)/C=C/c2ccccc2)C(Cl)(Cl)Cl)c1 (configuration not stated),"11.2 µM [falling, partial curve]","11.2 µM [falling, single point]"
Cc1cccc(C(=O)Nc2ccnc(-c3cccnc3)n2)c1,,"0.00447 µM [falling, full curve, poor fit]"
CCOc1ccc(C(=O)NC(=S)Nc2ccccc2N2CCCCC2)cc1[N+](=O)[O-],"10 µM [rising, partial curve]",
O=C(COc1cccnc1[N+](=O)[O-])Nc1cccc(S(=O)(=O)N2CCCCC2)c1,"35.5 µM [rising, single point]",
N/C(=N\S(=O)(=O)c1ccccc1)c1ccc([N+](=O)[O-])cc1,"17.8 µM [rising, single point]","17.8 µM [rising, partial curve]"
CCOc1ncccc1C(=O)OC(C)C(=O)NC(=O)NC1CCCCC1 (configuration not stated),"3.98 µM [falling, full curve]","0.02 µM [falling, full curve, poor fit]"
CCOC(=O)c1nnn(-c2nonc2-n2cccc2)c1-c1cccc([N+](=O)[O-])c1,,"0.0251 µM [rising, full curve, poor fit]"
Nc1cccc2c1C(=O)N(C(=O)c1cccc(S(=O)(=O)N3CCCCCC3)c1)C2=O,"35.5 µM [falling, partial curve, poor fit]",
COc1ccc2nc(N(Cc3cccnc3)C(=O)Cc3ccccc3)sc2c1,"35.5 µM [falling, partial curve, poor fit]","31.6 µM [falling, partial curve]"
Nc1[nH]nc2c1NN(c1ccc(Cl)cc1Cl)N2,"22.4 µM [rising, partial curve, poor fit]",
Brc1ccc(-c2csc(-c3c[nH]c4ccccc34)n2)cc1,,"6.31 µM [rising, partial curve, poor fit]"
CCCCS(=O)(=O)N1C2=NC(C(=O)OC)=C(C(=O)OC)[C@@H]3N(Cc4ccccc4)c4ccccc4[C@]23C[C@H]1C(=O)OC,,"0.00316 µM [rising, full curve, poor fit]"
COc1ccccc1CNC(=O)CN1C(=O)COc2ccc(S(=O)(=O)NC3CCCC3)cc21,,"12.6 µM [falling, partial curve, poor fit]"
COc1ccccc1N(C)S(=O)(=O)c1ccc(Cl)c(C(=O)OCc2c(C)noc2C)c1,"3.55 µM [falling, partial curve]","11.2 µM [falling, partial curve, poor fit]"
Cc1cn(S(=O)(=O)c2cc(Br)ccc2Br)cn1,"1.78 µM [falling, partial curve, poor fit]",
CCOc1ccc(NS(=O)(=O)c2ccc3c(c2)oc(=O)n3C)cc1,"14.1 µM [rising, single point]",
CCOC(=O)c1cnc(SCc2nc(N)nc(Nc3ccc(F)cc3)n2)nc1N,"11.2 µM [rising, single point]",
C[C@@]12C(=O)OC(=O)[C@]1(C)[C@H]1CC[C@@H]2O1,"1.12 µM [falling, full curve]","1 µM [falling, full curve]"
O=C(O)CCC/C=C\C[C@@H]1[C@@H](/C=C/[C@@H](O)COc2cccc(C(F)(F)F)c2)[C@H](O)C[C@@H]1O,,"0.355 µM [rising, partial curve, poor fit]"
COc1ccc(S(=O)(=O)N(C)CC(=O)N2CCN(Cc3ccccc3)CC2)cc1C,"10 µM [rising, partial curve]",

# Look-ups from the entries so far:
# Value of CCOC(=O)c1c(NC(=O)c2ccc(S(=O)(=O)N(C)C3CCCCC3)cc2)sc2c1CCN(C(C)C)C2 under AC50 [1]: 35.5 µM [falling, single point]
# Value of CCOc1ccc(C(=O)NC(=S)Nc2ccccc2N2CCCCC2)cc1[N+](=O)[O-] under AC50 [1]: 10 µM [rising, partial curve]
